Some of the results follow.
The targets below were run with O=C(CCCCCCC(=O)Nc1ccccc1)NO [vorinostat] (assay: log2 fold change, soluble protein after heating vs DMSO (PISA); higher = thermal stabilisation; K562 lysate, 10 uM; active = over 0.2 and 3.5 SD of the protein, either way, in both replicates (recomputed)).
Method in brief: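 K562 pellets were dounce-homogenised in PBS pH 7.4 containing 1 mM MgCl2, and the crude extract, at 1 mg/mL protein, was exposed to 10 μM compound for 30 min. Aliquots were heated for 3 min across 48°C-58°C, pooled, brought to 0.5% NP-40 at 4°C and spun at 21,000xg for 90 min, with the supernatant taken as soluble protein. TMTpro 16plex LC-MS/MS with equalised channel sums quantified that protein. Values are log-two fold changes in thermal stability relative to solvent controls, taken from duplicates.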

Protein sequences, listed by entry. Tags and fused reporters are not part of them. Lines headed by an entry give the natural chain unless they say otherwise; changes in a name come on top.
UniProt Q9H5J4: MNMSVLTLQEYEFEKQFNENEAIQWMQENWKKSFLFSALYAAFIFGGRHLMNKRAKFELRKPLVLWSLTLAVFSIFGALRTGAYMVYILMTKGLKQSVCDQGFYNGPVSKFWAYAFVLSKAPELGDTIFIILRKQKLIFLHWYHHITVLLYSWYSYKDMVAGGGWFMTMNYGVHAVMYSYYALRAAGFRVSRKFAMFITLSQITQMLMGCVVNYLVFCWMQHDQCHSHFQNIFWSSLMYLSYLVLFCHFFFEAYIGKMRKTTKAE
UniProt O15371, whole entry, looked up: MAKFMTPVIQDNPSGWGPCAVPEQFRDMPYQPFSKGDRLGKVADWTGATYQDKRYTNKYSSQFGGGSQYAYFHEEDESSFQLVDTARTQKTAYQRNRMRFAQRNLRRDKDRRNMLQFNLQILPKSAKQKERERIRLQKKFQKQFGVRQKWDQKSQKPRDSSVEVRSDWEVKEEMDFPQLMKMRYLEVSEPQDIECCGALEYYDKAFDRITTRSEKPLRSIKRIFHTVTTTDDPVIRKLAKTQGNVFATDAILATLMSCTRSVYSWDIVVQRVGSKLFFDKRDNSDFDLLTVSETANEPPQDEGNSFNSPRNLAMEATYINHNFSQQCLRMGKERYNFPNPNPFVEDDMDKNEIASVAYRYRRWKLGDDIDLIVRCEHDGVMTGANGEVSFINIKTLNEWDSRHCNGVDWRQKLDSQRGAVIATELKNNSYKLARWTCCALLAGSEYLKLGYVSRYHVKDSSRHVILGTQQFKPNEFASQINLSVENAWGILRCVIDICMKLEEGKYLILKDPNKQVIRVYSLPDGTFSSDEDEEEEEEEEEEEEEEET
UniProt Q14240, whole entry, looked up: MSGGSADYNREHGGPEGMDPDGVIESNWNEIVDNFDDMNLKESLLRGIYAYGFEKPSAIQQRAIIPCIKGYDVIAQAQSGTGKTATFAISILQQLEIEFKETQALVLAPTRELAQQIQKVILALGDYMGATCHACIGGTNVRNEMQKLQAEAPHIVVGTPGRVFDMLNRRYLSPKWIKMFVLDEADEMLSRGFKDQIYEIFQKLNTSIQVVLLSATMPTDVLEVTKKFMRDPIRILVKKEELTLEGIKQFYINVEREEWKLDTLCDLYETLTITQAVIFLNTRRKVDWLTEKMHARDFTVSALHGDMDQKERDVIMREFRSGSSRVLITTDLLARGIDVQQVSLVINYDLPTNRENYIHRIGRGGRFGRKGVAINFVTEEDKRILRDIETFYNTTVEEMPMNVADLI
UniProt O14638, whole entry, looked up: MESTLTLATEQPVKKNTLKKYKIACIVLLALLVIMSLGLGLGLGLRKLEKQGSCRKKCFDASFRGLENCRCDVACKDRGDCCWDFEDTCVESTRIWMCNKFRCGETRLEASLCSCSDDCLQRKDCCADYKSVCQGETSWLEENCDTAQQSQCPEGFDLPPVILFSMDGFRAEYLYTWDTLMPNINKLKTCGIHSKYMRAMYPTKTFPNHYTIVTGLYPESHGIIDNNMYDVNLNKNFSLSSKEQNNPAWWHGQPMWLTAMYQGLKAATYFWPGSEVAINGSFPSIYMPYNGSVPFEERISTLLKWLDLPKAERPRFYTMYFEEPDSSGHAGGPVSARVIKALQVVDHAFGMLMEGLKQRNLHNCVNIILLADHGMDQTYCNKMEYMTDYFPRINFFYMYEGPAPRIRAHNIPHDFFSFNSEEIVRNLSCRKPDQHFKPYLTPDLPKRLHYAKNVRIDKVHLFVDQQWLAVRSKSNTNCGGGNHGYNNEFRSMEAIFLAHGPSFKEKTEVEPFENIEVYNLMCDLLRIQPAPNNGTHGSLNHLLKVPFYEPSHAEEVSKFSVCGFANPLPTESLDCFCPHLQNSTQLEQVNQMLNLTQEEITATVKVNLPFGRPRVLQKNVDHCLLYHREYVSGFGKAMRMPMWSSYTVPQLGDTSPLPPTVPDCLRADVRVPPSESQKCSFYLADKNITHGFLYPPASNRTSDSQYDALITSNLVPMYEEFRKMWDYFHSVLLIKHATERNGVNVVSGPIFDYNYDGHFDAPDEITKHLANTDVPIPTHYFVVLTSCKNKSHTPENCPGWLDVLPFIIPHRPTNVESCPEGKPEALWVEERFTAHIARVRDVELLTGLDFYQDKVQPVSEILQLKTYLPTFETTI
UniProt P49770: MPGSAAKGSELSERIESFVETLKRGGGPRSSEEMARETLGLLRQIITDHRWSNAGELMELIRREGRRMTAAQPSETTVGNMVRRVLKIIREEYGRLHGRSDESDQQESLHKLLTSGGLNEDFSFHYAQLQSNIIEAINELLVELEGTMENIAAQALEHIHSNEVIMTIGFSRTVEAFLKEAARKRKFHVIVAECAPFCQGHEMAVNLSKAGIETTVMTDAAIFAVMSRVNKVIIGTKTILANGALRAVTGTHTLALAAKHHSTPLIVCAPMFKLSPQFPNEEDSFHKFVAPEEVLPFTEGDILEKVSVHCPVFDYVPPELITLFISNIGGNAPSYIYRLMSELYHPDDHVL
UniProt Q96JJ3: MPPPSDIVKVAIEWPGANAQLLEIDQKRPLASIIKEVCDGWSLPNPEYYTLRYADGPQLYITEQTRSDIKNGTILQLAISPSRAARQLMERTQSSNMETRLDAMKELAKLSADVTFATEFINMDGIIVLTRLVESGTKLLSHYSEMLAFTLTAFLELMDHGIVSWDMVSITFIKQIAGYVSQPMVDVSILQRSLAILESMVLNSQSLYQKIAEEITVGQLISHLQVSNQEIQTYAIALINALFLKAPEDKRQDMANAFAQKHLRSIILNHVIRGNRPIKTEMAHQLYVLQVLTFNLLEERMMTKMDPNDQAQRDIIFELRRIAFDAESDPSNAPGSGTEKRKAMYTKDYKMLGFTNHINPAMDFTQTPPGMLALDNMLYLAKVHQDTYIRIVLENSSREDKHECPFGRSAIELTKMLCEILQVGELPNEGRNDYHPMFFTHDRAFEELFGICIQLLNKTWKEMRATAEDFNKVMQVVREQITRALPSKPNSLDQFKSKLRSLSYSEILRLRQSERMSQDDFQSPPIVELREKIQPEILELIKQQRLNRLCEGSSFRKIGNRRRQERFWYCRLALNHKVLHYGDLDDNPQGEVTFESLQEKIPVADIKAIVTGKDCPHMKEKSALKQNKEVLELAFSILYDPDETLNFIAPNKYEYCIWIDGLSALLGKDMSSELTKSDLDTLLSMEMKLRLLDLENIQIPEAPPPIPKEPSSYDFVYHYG
UniProt P11171, whole entry, looked up: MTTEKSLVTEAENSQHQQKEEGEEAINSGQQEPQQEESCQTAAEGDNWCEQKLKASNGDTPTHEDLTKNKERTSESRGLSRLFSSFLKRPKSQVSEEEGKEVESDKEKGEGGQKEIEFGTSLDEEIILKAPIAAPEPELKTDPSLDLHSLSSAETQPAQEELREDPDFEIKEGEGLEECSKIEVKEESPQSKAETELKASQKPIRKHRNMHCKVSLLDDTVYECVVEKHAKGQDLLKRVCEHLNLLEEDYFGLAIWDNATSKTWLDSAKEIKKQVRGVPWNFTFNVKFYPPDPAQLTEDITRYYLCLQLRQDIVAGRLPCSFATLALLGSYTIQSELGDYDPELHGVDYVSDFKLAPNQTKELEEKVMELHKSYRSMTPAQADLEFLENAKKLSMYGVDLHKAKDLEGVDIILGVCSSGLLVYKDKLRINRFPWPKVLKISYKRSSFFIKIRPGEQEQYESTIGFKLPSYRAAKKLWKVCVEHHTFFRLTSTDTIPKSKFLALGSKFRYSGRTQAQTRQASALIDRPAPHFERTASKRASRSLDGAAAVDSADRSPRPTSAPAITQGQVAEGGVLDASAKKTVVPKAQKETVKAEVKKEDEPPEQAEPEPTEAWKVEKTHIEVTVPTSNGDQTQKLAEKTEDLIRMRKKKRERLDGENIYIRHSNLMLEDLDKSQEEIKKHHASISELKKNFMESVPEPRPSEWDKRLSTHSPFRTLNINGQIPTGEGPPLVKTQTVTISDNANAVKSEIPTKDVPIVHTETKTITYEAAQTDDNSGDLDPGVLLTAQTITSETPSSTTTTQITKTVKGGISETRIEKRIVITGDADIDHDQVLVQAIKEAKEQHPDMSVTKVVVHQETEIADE
UniProt Q9P2K8: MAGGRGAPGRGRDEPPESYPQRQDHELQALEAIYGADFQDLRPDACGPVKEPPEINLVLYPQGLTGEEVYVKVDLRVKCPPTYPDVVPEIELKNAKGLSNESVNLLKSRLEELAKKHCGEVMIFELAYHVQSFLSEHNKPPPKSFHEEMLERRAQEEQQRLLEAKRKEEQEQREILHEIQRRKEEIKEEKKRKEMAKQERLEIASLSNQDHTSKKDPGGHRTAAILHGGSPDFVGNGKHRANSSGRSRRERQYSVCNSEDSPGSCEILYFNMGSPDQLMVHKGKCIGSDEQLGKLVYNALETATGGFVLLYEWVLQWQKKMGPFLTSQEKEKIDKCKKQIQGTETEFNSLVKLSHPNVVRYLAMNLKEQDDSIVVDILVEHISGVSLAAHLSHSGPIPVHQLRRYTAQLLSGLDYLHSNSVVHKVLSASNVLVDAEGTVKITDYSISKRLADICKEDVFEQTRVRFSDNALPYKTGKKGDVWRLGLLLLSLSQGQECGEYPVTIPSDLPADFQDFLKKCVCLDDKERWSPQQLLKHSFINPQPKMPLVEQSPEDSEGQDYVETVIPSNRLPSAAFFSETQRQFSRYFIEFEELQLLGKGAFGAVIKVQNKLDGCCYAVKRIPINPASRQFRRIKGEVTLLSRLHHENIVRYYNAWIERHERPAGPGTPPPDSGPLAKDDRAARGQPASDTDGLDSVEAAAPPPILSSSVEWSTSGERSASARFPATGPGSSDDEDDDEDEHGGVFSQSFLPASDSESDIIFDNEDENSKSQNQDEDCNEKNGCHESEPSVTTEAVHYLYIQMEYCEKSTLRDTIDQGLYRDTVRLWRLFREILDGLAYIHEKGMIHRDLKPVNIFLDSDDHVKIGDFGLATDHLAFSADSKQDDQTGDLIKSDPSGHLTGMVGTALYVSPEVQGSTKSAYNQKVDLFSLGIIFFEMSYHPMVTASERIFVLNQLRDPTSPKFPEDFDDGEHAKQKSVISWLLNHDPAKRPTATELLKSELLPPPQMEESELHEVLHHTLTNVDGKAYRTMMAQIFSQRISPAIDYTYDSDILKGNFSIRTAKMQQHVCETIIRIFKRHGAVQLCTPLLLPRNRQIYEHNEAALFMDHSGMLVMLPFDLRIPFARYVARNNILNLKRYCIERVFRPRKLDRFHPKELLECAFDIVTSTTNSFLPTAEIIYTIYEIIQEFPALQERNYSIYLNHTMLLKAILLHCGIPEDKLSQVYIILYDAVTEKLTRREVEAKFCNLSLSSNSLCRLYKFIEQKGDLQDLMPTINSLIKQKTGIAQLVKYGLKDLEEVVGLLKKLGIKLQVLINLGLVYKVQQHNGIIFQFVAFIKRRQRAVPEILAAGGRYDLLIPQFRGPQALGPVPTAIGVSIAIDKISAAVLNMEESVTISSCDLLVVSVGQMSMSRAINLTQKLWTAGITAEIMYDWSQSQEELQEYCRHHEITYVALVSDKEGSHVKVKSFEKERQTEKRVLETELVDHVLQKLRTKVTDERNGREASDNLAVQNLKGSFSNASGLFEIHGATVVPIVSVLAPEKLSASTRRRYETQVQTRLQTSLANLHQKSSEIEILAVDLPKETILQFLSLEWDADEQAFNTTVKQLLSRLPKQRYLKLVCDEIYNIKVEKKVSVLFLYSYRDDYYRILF
UniProt Q8IZ81: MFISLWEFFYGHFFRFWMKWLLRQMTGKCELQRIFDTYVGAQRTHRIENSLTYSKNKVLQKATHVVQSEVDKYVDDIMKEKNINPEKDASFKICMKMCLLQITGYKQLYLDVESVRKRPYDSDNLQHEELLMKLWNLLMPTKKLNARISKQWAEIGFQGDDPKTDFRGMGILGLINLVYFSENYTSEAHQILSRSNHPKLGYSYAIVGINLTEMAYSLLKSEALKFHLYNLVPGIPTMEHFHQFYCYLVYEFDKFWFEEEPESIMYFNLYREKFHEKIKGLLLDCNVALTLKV
UniProt O60573: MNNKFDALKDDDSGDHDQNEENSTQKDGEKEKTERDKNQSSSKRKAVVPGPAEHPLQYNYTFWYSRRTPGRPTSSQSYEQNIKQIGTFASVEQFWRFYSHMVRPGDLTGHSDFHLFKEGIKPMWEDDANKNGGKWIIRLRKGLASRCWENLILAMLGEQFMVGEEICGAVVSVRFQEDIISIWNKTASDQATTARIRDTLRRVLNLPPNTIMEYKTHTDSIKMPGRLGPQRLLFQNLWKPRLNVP
UniProt P63241: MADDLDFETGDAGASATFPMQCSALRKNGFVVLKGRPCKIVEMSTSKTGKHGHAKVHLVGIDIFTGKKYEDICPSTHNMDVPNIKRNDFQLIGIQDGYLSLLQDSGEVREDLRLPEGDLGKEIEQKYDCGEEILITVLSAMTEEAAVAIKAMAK
UniProt Q13542: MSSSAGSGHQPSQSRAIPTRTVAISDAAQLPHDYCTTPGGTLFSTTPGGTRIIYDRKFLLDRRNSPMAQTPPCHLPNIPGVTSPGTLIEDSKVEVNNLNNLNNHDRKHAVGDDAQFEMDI

| Target | log2 fold change |
| --- | --- |
| ELOVL6 (UniProt Q9H5J4) | inactive: 0.094 |
| EMC8 (UniProt O43402) | inactive: 0.111 |
| ERCC3 (UniProt P19447) | inactive: -0.148 |
| EIF3D (UniProt O15371) | inactive: -0.118 |
| ERAL1 (UniProt O75616) | inactive: -0.103 |
| EIF4A2 isoform 2 (UniProt Q14240) | inactive: 0.028 |
| ERC1 (UniProt X6RLX0) | inactive: 0.084 |
| EMG1 (UniProt Q92979) | inactive: -0.107 |
| ENPP3 (UniProt O14638) | inactive: 0.169 |
| EIF2S3 (UniProt P41091) | inactive: 0.1 |
| EIF2B2 (UniProt P49770) | inactive: -0.019 |
| ELMO2 (UniProt Q96JJ3) | inactive: -0.194 |
| EPB41 (UniProt P11171) | inactive: 0.035 |
| EIF2AK4 (UniProt Q9P2K8) | inactive: -0.069 |
| EP400P1 isoform 6 (UniProt Q6ZTU2) | inactive: 0.278 |
| ELMOD2 (UniProt Q8IZ81) | inactive: -0.003 |
| ELAVL4 (UniProt P26378) | active: -0.402 |
| ENGASE (UniProt Q8NFI3) | active: -0.337 |
| EPM2AIP1 (UniProt Q7L775) | inactive: -0.108 |
| ELF1 (UniProt P32519) | inactive: -0.105 |
| EIF4E2 (UniProt O60573) | inactive: -0.048 |
| EIF5A isoform 2 (UniProt P63241) | inactive: 0.058 |
| EIF4EBP2 (UniProt Q13542) | inactive: 0.15 |

Exported as labelled records: part of the list above
EIF2B2 (UniProt P49770)
  log2 fold change: inactive: -0.019
ELMO2 (UniProt Q96JJ3)
  log2 fold change: inactive: -0.194

— the supplement of paper PMC10849652
